Source: patent EP0470144B1, “BETA-HYDROXAMATE D-ASPARTIC ACID FOR TREATMENT OF VIRAL INFECTIONS AND TUMOURS” (priority 1989, dated 1990)
At least one compound was matched to its structure with a doubt left.

System: leucémie L1210
Experiment: Antitumour activity in the L1210 leukaemia model, survival
Format: in vivo, souris B6D2F1/J
Conditions: J1 - J5
Excerpt: L'activité antitumorale du DAH et du LAH a été étudiée sur le modèle de leucémie L1210. Les cellules leucémiques L1210 sont maintenues par passages intrapéritonéaux dans la souris B6D2F1/J mâle. […] La durée d'observation est de 30 jours.

## N[C@@H](CC(=O)NO)C(=O)O [DAH, D-acide aspartique β-hydroxamate]
0,5 g/kg x4/j, days 1,2,3
  Evolution pondérale: + 1,400 grammes
1,5 g/kg x4/j, days 1,2,3,4
  Evolution pondérale: + 1,000 grammes
1,5 g/kg x4/j, days 1,2,3
  Evolution pondérale: + 1,200 grammes
1 g/kg x3/j, days 1-10
  Evolution pondérale: + 1,300 grammes
1 g/kg x4/j, days 1,2,3
  Evolution pondérale: + 1,100 grammes
